Measured values from patent publication US5567716A, “Trans and cis traumatic acid salts having cicatrizant activity associated to bacteriostatic, antiviral, antibiotic or antifungal activity” (priority 1992, dated 1996).
At least one compound was matched to its structure with a doubt left.

Tested on: St.epidermidis ATCC 14990
Experiment: Evaluation of bacteriostatic minimal concentration (BMC)
Type: cell-based
Conditions: Table 2.b)4; test concentrations given in μg/ml
Method: 1. Culture Medium: Tryprone Soy Broth (TBS) - Biogenetics
Microbic standard strains from American Type Culture Collection (ATCC) were used, chosen among aerobic Gram positive and negative as follows:
The broths culture of the different species are prepared growing the standard strain (kept in Tryptic Soy Agar (TSA) slent at 5° C.) in Tryptone Soy Broth (TSB) for 12 hours at 37° C. 10 ml are then taken up from each culture, centrifugated for 3 times at 3500 PM washing each time the sediment using 10 ml of sterile saline solution. The sediment is resuspended in the saline solution until obtainment of a turbidity corresponding to the Mc Farland standard solution (the suspension title must be […] UFC/ml).
The compounds, dissolved as stock solution, were added to test tubes containing 5 ml TBS in order to obtain the desired Final concentration 10000; 5000; 1000; 200; 40; 2; 0.4; 0.05 μg/ml (culture medium maximal dilution=1/10).
50 μl of bacterial suspension are added to the tube containing the compounds to be tested and incubated at 37° C.: the densitometric determination is made in comparison with Mc Farland standard solution 24 and 48 hours later.
After the incubation time the suspensions ape gently agitated; 50 μl of each suspension are inoculated in tubes containing […] of TSB and incubated at 37° C.; the densitometric determination is made 48 hours later. […]

CC[C@H]1OC(=O)[C@H](C)[C@@H](O[C@H]2C[C@@](C)(OC)[C@@H](O)[C@H](C)O2)[C@H](C)[C@@H](O[C@@H]2O[C@H](C)C[C@H](N(C)C)[C@H]2O)[C@](C)(O)C[C@@H](C)C(=O)[C@H](C)[C@@H](O)[C@]1(C)O.CC[C@H]1OC(=O)[C@H](C)[C@@H](O[C@H]2C[C@@](C)(OC)[C@@H](O)[C@H](C)O2)[C@H](C)[C@@H](O[C@@H]2O[C@H](C)C[C@H](N(C)C)[C@H]2O)[C@](C)(O)C[C@@H](C)C(=O)[C@H](C)[C@@H](O)[C@]1(C)O.O=C(O)/C=C/CCCCCCCCC(=O)O [Erythromycin Traumatate, Erythromycin trans-traumatate]
MINIMAL BACTERIAL CONCENTRATION: 10.000.00
